Patent publication US20240190989A1
No constants are given. Whether binding was seen depends on the method and setting. Some entries that bind do so weakly or less than the wild type. Sequences can lack the tags named with a protein.

Molecular target: human CD137 ECD-mIgG2a (human)
Assay: ELISA on coated human CD137 ECD-mIgG2a in the presence of serially diluted human CD137 ligand ECD-mIgG2a [panel A]

binding: binds
B1: BGA-5623 with a human IgG4 Fc fusion (Fc fusion)
chain: EVQLLESGGGLVQPGGSLRLSCAASGFTVSAEDVGWVRQAPGKGLEWVSAILDKGGSTYYAESVKGRFTISRDNAKNTLYLQMSSLRAEDTAVYYCARIVYHAGGGVTFDTRGQGTQVTVSSESKYGPPCPPCPAPEFLGGPSVFLFPPKPKDTLMISRTPEVTCVVVDVSQEDPEVQFNWYVDGVEVHNAKTKPREEQFNSTYRWSVLTVLHQDWLNGKEYKCKVSNKGLPSSIEKTISKAKGQPREPQVYTLPPSQEEMTKNQVSLTCLVKGFYPSDIAVEWESNGQPENNYKTTPPVLDSDGSFFLYSRLTVDKSRWQEGNVFSCSVMHEALHNHYTQKSLSLSLGK
